Source: article PMC9120517
These are yes or no findings as the source states them, for the method shown. In cells and extracts the contact can be indirect. Some results given as binding are weak or reduced against the parent protein; the word gives no strength.

The chains behind the UniProt entries cited, without tags or fusion partners.
UniProt P04350: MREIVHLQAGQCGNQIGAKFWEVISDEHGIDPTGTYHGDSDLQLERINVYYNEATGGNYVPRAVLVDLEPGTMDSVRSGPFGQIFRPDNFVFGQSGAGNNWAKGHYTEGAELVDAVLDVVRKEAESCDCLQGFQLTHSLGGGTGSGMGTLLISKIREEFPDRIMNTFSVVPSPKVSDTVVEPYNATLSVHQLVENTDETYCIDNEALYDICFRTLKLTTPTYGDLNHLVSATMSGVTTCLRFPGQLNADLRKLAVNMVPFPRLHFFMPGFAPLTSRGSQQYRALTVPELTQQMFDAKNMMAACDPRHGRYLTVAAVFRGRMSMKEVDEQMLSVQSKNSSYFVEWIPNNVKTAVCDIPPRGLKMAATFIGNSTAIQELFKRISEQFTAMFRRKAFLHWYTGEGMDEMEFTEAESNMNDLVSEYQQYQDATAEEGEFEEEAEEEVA
UniProt P35579: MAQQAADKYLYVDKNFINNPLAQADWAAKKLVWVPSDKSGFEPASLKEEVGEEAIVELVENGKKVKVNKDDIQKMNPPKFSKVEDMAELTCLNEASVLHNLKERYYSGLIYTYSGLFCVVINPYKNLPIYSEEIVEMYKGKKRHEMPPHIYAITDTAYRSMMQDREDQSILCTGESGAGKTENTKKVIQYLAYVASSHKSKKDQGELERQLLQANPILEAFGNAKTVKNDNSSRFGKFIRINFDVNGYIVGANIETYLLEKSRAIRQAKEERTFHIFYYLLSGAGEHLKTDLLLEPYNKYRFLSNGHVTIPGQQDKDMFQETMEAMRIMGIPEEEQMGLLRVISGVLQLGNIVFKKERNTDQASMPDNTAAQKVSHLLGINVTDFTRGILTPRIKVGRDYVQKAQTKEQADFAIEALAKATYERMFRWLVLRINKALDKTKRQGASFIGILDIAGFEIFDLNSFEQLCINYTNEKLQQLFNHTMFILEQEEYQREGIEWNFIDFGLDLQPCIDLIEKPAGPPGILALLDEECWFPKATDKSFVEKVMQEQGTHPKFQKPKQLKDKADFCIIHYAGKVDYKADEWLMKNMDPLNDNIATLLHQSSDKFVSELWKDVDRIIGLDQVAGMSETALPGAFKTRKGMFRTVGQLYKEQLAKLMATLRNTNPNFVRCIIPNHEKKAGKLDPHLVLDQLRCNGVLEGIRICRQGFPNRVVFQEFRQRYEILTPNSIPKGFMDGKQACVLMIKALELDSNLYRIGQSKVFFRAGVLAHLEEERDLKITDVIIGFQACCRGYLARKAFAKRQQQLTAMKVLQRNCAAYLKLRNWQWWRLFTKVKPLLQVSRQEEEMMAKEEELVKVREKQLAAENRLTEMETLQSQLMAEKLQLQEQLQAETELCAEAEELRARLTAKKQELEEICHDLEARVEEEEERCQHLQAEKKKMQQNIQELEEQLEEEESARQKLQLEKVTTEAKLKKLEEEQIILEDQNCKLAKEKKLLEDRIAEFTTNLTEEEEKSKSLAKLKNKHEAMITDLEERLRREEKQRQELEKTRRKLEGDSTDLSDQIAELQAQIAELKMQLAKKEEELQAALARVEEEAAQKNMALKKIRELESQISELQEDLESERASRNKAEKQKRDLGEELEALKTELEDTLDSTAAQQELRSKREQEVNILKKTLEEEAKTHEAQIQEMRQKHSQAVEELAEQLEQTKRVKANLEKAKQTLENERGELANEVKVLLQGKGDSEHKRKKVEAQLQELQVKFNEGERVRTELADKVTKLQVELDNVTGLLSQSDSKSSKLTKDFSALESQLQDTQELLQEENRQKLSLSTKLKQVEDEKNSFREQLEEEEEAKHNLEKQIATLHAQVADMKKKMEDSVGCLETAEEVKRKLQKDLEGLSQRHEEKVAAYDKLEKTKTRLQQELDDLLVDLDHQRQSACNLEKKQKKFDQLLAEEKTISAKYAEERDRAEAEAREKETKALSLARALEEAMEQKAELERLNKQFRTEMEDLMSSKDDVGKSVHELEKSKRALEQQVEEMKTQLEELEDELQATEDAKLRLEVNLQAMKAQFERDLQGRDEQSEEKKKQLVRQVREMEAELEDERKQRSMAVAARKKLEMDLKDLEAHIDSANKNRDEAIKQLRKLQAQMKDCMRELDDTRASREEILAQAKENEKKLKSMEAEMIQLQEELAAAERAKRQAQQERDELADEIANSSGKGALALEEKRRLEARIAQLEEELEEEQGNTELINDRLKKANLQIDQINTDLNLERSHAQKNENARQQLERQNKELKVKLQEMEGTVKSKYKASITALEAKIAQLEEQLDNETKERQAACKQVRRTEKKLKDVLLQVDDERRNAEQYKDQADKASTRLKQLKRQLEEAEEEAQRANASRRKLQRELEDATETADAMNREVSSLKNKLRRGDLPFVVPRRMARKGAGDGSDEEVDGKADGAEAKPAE

Biological target: Human tubulin beta class IVa (TUBB4A) (human (endogenous in DU145)) (UniProt P04350)
Experiment: co-IP; endogenous TUBB4A and MYH9 in DU145 cell lysate; IgG or specific antibody, protein A/G agarose; input diluted 1/10

- binding: binds
Substance: MYH9 (myosin heavy chain 9) (from UniProt P35579 1-1960)
